Results taken from patent publication US20120009123A1, “Albumin binding peptide-mediated disease targeting” (ABRAXIS BIOSCIENCE, LLC, priority 2008, published 2012).
These are yes or no findings as the source states them, for the method shown. Some results given as binding are weak or reduced against the parent protein; the word gives no strength.

Chains of the proteins cited; added tags and fusions are not shown. Residues count along the entry.
UniProt P02768, residues 25-609: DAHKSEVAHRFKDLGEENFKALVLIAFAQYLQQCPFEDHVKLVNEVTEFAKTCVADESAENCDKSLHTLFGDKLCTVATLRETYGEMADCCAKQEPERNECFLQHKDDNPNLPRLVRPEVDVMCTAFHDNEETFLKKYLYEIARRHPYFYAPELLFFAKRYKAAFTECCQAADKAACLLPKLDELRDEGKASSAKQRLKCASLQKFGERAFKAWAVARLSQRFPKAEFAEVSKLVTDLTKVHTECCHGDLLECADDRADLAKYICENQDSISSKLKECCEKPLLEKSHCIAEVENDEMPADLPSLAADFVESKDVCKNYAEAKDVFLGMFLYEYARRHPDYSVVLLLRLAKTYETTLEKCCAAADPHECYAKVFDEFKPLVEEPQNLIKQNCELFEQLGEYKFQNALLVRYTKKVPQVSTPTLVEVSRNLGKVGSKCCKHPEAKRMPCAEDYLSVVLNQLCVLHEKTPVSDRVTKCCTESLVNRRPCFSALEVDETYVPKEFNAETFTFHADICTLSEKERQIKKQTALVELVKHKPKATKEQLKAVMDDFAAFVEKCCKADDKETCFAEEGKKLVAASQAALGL

How the values were obtained:
human serum albumin = molecular target: T1, human serum albumin (human, UniProt P02768 25-609); experiment: M13 12-mer phage display, four rounds of panning on coated HSA, sequencing of about 100 plaques
T1 construct: also called HSA; human albumin

[1] = molecular target: human serum albumin spiked with Alexa fluor 488 conjugated bovine serum albumin (human) (UniProt P02768); experiment: competitive binding assay with SPARC sub-fragment peptides (FIG. 9)
[2] = molecular target: human serum albumin spiked with Alexa fluor 488 conjugated bovine serum albumin (human) (UniProt P02768); experiment: competitive binding assay, peptide against binding of Alexa 488-BSA/HSA to SPARC, two experiments

Measured: binding

WPHHHHTRLSTV […]
binds: human serum albumin | [1] | [1]; record 2 | [2]
